Source: PMC10797482, “The Interaction between Collagen 1 and High Mannose Type CD133 Up‐Regulates Glutamine Transporter SLC1A5 to Promote the Tumorigenesis of Glioblastoma Stem Cells” (Advanced Science, 2023)
No constants are given. Whether binding was seen depends on the method and setting. For part of these data: In cells and extracts the contact can be indirect. Some entries that bind do so weakly or less than the wild type. For part of these data: Tags and fused reporters may be left off the sequences shown.

Sequences of proteins named here, by UniProt entry; tags and fusion partners are left off. A change or cut given only in a name is not applied to a line headed by its entry. Residues count along the entry.
His-COL1A1(972-1206) (P02452, residues 972-1206): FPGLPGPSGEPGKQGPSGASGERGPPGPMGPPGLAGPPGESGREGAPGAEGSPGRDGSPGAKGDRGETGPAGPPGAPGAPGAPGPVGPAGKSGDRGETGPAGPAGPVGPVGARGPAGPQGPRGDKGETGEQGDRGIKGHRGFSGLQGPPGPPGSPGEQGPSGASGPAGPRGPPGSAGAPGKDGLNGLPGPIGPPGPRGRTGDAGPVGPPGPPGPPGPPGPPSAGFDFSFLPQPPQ
His-COL1A1(972-1206) deletion mutant lacking amino acids 1193–1206 (P02452, residues 972-1192): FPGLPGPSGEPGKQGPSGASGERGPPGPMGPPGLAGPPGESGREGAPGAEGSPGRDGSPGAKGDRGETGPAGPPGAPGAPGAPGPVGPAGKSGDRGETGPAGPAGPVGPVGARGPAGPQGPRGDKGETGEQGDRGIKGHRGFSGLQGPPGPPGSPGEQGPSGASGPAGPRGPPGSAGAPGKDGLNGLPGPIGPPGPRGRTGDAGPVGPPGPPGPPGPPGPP

Columns and labels:
[1] = target: T1, extracellular N-terminal domain of CD133 (residues 20–108), yeast two-hybrid bait (human) (UniProt O43490); assay: two-hybrid; bait CD133(20-108) in pGBKT7 screened against pACT2 human cDNA library (human fetal brain); four positive clones from 1 × 10^6 clones
T1 sequence: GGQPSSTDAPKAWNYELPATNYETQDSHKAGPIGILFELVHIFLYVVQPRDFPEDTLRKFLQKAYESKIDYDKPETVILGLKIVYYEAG

[2] = target: T2, CD133(43-81)-Strep (human) (UniProt O43490); assay: pull-down; Strep pull-down assay, in vitro (Figure S1I); method not given
T2 sequence: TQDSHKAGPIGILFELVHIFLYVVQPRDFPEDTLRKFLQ

[3] = target: T3, GST-CD133(20-108) (human) (UniProt O43490); assay: pull-down; GST pull-down: 10 µg purified GST fusion protein with GST-beads incubated with His-COL1A1(972-1206) protein 1 h at 4 °C; washed three times with RIPA (1% Triton X-100, 50 mM Tris pH 7.4, 150 mM NaCl, 2 mM EDTA); blot with anti-His antibody; both purified
T3 sequence: T1 sequence

Substance: COL1A1 (972-1206), clone from the pACT2 human fetal brain cDNA library (from UniProt P02452 972-1206) (domain or fragment)
- binding [1]: binds

Substance: His-COL1A1(972-1206) (from UniProt P02452 972-1206) (domain or fragment)
- binding [2]: binds

Substance: His-COL1A1(972-1206) deletion mutant lacking amino acids 1193–1206 (from UniProt P02452 972-1192) (domain or fragment)
- binding [3]: binds
